From article PMC10928564 come the findings set out here.

Protein sequences, listed by entry. Tags and fused reporters are not part of them.
UniProt P70372: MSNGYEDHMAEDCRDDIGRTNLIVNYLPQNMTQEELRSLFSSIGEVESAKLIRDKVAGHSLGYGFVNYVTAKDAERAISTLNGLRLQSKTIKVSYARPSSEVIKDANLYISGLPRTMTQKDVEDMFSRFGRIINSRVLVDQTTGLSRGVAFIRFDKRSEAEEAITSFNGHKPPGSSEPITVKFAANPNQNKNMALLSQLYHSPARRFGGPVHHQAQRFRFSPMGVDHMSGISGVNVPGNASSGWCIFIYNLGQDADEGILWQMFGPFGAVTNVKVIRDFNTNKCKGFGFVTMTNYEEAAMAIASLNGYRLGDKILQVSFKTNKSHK
UniProt Q02248: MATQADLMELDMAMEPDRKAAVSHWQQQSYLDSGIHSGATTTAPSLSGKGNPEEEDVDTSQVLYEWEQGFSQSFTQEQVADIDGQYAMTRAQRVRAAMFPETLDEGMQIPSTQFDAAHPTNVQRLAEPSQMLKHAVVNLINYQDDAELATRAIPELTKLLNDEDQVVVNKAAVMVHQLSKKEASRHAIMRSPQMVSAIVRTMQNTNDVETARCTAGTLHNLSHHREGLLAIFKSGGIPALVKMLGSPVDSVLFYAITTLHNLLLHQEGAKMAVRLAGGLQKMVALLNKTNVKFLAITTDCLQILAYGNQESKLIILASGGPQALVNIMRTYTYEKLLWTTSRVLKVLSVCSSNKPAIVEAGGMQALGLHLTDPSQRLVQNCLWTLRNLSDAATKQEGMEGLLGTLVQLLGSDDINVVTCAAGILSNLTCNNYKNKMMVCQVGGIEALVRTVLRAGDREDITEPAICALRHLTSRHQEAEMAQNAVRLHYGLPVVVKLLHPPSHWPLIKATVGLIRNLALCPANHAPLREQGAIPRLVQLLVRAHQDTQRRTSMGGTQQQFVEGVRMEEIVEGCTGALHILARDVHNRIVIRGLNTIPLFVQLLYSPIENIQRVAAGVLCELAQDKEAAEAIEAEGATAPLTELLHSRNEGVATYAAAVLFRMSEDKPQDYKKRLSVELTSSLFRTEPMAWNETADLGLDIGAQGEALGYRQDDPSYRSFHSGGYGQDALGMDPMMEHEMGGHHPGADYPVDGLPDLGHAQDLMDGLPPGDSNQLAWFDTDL

The target of this assay is human antigen R (HuR) (mouse (endogenous in MC3T3-E1)) (UniProt P70372). Kind of assay: co-IP; anti-HuR antibody (5 μg) on Protein A + G magnetic beads, lysate of 2 × 10^7 MC3T3-E1 cells, overnight at 4°C, western blot; cells with or without 500 μM sodium arsenite (SA) for 30 min, and HuR-knockdown cells; anti-IgG as control. On the technique in general: In western blotting, separated proteins are transferred to a membrane and probed.

Results are given in words; binding and its absence hold for the method and conditions named. In cells and extracts the contact can be indirect. Some results given as binding are weak or reduced against the parent protein; the word gives no strength.

Regarding β‐catenin (from UniProt Q02248 1-781), the binding entry is “binds”.
